Laboratory results published in patent US9125406B2, “Methods and compositions for control of cabbage looper, trichoplusia ni” (Simon Fraser University, priority 2008, dated 2015).
Where two headings read alike, the source gives them in different places. The name of at least one read-out is uncertain. Some results were stated once for a whole list of compounds, not compound by compound.

Tests used:
[1] = test system: third instar T. ni larvae; settings: at 0.25%
Method: (§1) Initial screening for feeding deterrent effects was conducted at 50 μg/cm^2 in feeding deterrent bioassays.
Mortality was determined 24 h after spraying larvae directly with test solutions. Third instar T. ni larvae were sprayed in 90 mm×15 mm Petri dishes (Falcon) lined with Fisher Scientific filter paper (90 mm diameter). Small plastic hand spraying bottles (50 mL capacity) were used. Larvae were then transferred to Petri dishes (90 mm×15 mm) with a small piece of artificial diet. Each Petri dish contained 10 larvae. Three replicates, each consisting of 10 larvae, were used per treatment.

[2] = test system: third instar T. ni larvae; assay: Leaf disk choice feeding deterrence bioassay; assay type: in vivo, Trichoplusia ni; settings: Table 8; 50 μg/cm^2
From the text: Cabbage plants (Brassica oleraceae var. Stonehead) used in the bioassays were routinely grown in plastic pots with a mixture of sandy loam soil and peat moss (4:1) in a greenhouse at the University of British Columbia, Vancouver, BC, Canada. Leaves were collected from cabbage plants that were 5-6 weeks old.
T. ni larvae and moths were obtained from a long established colony (>50 generations) maintained on an artificial diet, Velvetbean Caterpillar Diet No. F9796 [Bio-Sery Inc. (Frenchtown, NIL)] in the insectary of the University of British Columbia (UBC).
as §1
Larvae were given the choice of feeding on two leaf disks, one treated with 10 μL of a solution of the test substance painted on each side and the other treated with a carrier solvent alone. The number of larvae was 25 per treatment.
Feeding deterrence data (percent) for initial screening concentration were analyzed by analysis of variance (ANOVA) after arcsin transformation using statistics software (Statistix 7. Analytical Software, Statistix 7 for Windows 95, 98, NT, 2000. Analytical Software, Tallahassee).

T. ni moths = assay: Oviposition choice (deterrence) bioassay on cabbage leaves; assay type: in vivo, Trichoplusia ni; settings: Table 8, at 0.25%
Method: as §1
T. ni larvae were reared on normal diet from neonates (<24 h old) until pupation. Pupae were sexed and put in separate plastic containers until emergence. After eclosion, pairs of moths (one male and one female) were introduced into each cage with a control and a treated cabbage leaf. Pairs of moths (n=25) were used per treatment. Each leaf (approximately 100-110 cm^2) was sprayed with 0.5 mL of MeOH or a methanolic solution of the test chemical on each side. Eggs were counted on each cabbage leaf after 48 h.

Row | Compound | OD (%) Mean ± SE N = 35-40 (T. ni moths) | further results
1 | C=CCOc1ccccc1OCCC [3a{3, 6}, 1-allyloxy-2-propoxybenzene] |  | Mortality (%) N = 3 × 10 ([1]; Table 8): 10%; F.D (%) Mean ± SE N = 25 [2]: 97 ± 15 ^A %
2 | COc1cccc(OCCC(C)C)c1 [3b{1, 5}, 1-methoxy-3-(3-methyl-butyloxy)benzene] | 30 ± 14% | 
3 | C=CCOc1cccc(OCC=C)c1 [3b{6, 6}, 1,3-Diallyloxy benzene] | 26 ± 16% | 
4 | C=CCOc1ccc(OC)cc1 [3c{1, 6}, 1-allyloxy-4-methoxybenzene] | 13 ± 13% | OD (%) Mean ± SE N = 35-40 (T. ni moths; listed as 3c{1,6}): < 30%
5 | C=CCOc1ccc(OCC)cc1 [3c{2, 6}, 1-allyloxy-4-ethoxybenzene] | 17 ± 14% | 
6 | C=CCOc1ccc(OCCC)cc1 [3c{3, 6}, 1-allyloxy-4-propoxybenzene] | 21 ± 14% | 
7 | C=CCc1cc(OC)ccc1OC [5c{1, 1}, 1,4-dimethoxy-2-allyl-benzene] |  | Mortality (%) N = 3 × 10 ([1]; Table 10): 39%
